Test results taken from publication PMC6745501, “Plant photoreceptors and their signaling components compete for COP1 binding via VP peptide motifs” (The EMBO Journal, 2019).

B1: UVR8^12–381: UVR8 β-propeller core, residues 12–381 (protein, UniProt Q9FN03 12-381, looked up, fragment)
chain: APPRKVLIISAGASHSVALLSGDIVCSWGRGEDGQLGHGDAEDRPSPTQLSALDGHQIVSVTCGADHTVAYSQSGMEVYSWGWGDFGRLGHGNSSDLFTPLPIKALHGIRIKQIACGDSHCLAVTMEGEVQSWGRNQNGQLGLGDTEDSLVPQKIQAFEGIRIKMVAAGAEHTAAVTEDGDLYGWGWGRYGNLGLGDRTDRLVPERVTSTGGEKMSMVACGWRHTISVSYSGALYTYGWSKYGQLGHGDLEDHLIPHKLEALSNSFISQISGGWRHTMALTSDGKLYGWGWNKFGQVGVGNNLDQCSPVQVRFPDDQKVVQVSCGWRHTLAVTERNNVFAWGRGTNGQLGIGESVDRNFPKIIEALSVDG
B2: UVR8^12–415: UVR8 core with C-terminus extended to include the VP peptide motif, residues 12–415 (protein)
chain: APPRKVLIISAGASHSVALLSGDIVCSWGRGEDGQLGHGDAEDRPSPTQLSALDGHQIVSVTCGADHTVAYSQSGMEVYSWGWGDFGRLGHGNSSDLFTPLPIKALHGIRIKQIACGDSHCLAVTMEGEVQSWGRNQNGQLGLGDTEDSLVPQKIQAFEGIRIKMVAAGAEHTAAVTEDGDLYGWGWGRYGNLGLGDRTDRLVPERVTSTGGEKMSMVACGWRHTISVSYSGALYTYGWSKYGQLGHGDLEDHLIPHKLEALSNSFISQISGGWRHTMALTSDGKLYGWGWNKFGQVGVGNNLDQCSPVQVRFPDDQKVVQVSCGWRHTLAVTERNNVFAWGRGTNGQLGIGESVDRNFPKIIEALSVDGASGQHIESSNIDPSSGKSWVSPAERYAVVPDETG
modifications: left off: His10, N-terminal, cleaved | Twin-Strep, N-terminal, cleaved

System: COP1 WD40 domain
Assay: Grating-coupled interferometry (GCI) binding kinetics versus the COP1 WD40 domain
Parameters: species or system Arabidopsis
Details: ligand COP1 (2,000 pg/mm^2), analyte pre-monomerized by UV-B, highest concentration 2 μM, 25°C, 1:1 binding model
Procedure: For CRY2 activation, proteins were diluted to their final assay concentrations (as indicated in the figure legends) in Eppendorf tubes and exposed to 10 min of fluorescent light on ice.
The Creoptix WAVE system (Creoptix AG), a label‐free surface biosensor, was used to perform GCI experiments. All experiments were performed on 2PCH or 4PCH WAVEchips (quasi‐planar polycarboxylate surface; Creoptix AG). After a borate buffer conditioning (100 mM sodium borate pH 9.0, 1 M NaCl; Xantec), COP1 (ligand) was immobilized on the chip surface using standard amine‐coupling: 7 min activation [1:1 mix of 400 mM N‐(3‐dimethylaminopropyl)‐N′‐ethylcarbodiimide hydrochloride and 100 mM N‐hydroxysuccinimide (both Xantec)], injection of COP1 (10 μg/ml) in 10 mM sodium acetate pH 5.0 (Sigma) until the desired density was reached, and final quenching with 1 M ethanolamine pH 8.0 for 7 min (Xantec). […] Blank injections were used for double referencing and a dimethyl sulfoxide (DMSO) calibration curve for bulk correction. Analysis and correction of the obtained data were performed using the Creoptix WAVEcontrol software (applied corrections: X and Y offset; DMSO calibration; double referencing), and a one‐to‐one binding model or a heterogenous ligand model with bulk correction was used to fit all experiments.

Row | Molecule | Rmax, + UV-B
1 | B1 | 3.394 pg/mm^2
2 | B2 | 30.392 pg/mm^2
